Measurements from PMC4038944.
No constants are given. Whether binding was seen depends on the method and setting. For some assays here: A result given as binding can be weak or reduced; the word gives no strength. Where a sequence is shown, tags or fusion partners need not be part of it. For some assays here: In cells and extracts the contact can be indirect. Each block holds one molecule with its values, some of them ahead of it.

Columns and labels:
Myc–C-Nap1-CTD = molecular target: T1, Myc–C-Nap1-CTD (UniProt Q9BV73); test: co-IP; GFP-tagged protein coexpressed with Myc-tagged CTD constructs in U2OS cells for 24 hours; lysates immunoprecipitated with anti-Myc, blotted with anti-Myc and anti-GFP
T1 sequence: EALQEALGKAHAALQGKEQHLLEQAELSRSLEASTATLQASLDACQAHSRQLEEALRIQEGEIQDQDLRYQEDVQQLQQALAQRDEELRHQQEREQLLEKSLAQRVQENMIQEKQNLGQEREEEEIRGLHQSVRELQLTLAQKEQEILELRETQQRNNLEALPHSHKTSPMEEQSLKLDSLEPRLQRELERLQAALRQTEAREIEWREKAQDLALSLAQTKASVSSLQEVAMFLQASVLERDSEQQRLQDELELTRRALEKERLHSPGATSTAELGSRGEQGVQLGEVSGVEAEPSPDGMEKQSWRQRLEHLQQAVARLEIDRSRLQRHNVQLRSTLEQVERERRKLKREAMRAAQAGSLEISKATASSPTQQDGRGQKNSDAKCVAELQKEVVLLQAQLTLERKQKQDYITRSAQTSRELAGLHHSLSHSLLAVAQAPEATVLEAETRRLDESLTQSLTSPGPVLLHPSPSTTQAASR

Myc–C-Nap1-CTD-S10D [1] = molecular target: Myc–C-Nap1-CTD-S10D (UniProt Q9BV73); test: as above
[2] = molecular target: C-Nap1 CTD-S10D, LexA/VP16 two-hybrid fusion; test: two-hybrid; LexA-DBD (pLEICS-81) and VP16-AD (pLEICS-82) fusions in S. cerevisiae L40; beta-galactosidase activity in Miller units
[3] = molecular target: C-Nap1 CTD, LexA/VP16 two-hybrid fusion; test: as above
Myc–C-Nap1-CTD-S5D.2 = Myc–C-Nap1-CTD-S5D.2 (UniProt Q9BV73); test: co-IP; HA-Cep135-CTD co-transfected with Myc-C-Nap1-CTD constructs into U2OS cells; lysates immunoprecipitated with anti-Myc (or anti-HA, panel A), blotted with anti-C-Nap1, anti-Myc or anti-HA
Myc–C-Nap1-CTD-S10D [4] = molecular target: Myc–C-Nap1-CTD-S10D (UniProt Q9BV73); test: as above
Myc–C-Nap1-CTD-KR5E = Myc–C-Nap1-CTD-KR5E (UniProt Q9BV73); test: as above
Myc–C-Nap1-CTD-S5D.1 = Myc–C-Nap1-CTD-S5D.1 (UniProt Q9BV73); test: as above

binding (Myc–C-Nap1-CTD): binds
Molecule: GFP–C-Nap1-CTD (domain or fragment)

binding (Myc–C-Nap1-CTD-S10D [1]): binds
B1: GFP–Nek2A (enzyme, UniProt P51955 1-445)
chain: MPSRAEDYEVLYTIGTGSYGRCQKIRRKSDGKILVWKELDYGSMTEAEKQMLVSEVNLLRELKHPNIVRYYDRIIDRTNTTLYIVMEYCEGGDLASVITKGTKERQYLDEEFVLRVMTQLTLALKECHRRSDGGHTVLHRDLKPANVFLDGKQNVKLGDFGLARILNHDTSFAKTFVGTPYYMSPEQMNRMSYNEKSDIWSLGCLLYELCALMPPFTAFSQKELAGKIREGKFRRIPYRYSDELNEIITRMLNLKDYHRPSVEEILENPLIADLVADEQRRNLERRGRQLGEPEKSQDSSPVLSELKLKEIQLQERERALKAREERLEQKEQELCVRERLAEDKLARAENLLKNYSLLKERKFLSLASNPELLNLPSSVIKKKVHFSGESKENIMRSENSESQLTSKSKCKDLKKRLHAAQLRAQALSDIEKNYQLKSRQILGMR

binding [2]: binds
binding [3]: binds
B2: Nek2, LexA/VP16 two-hybrid fusion (enzyme, UniProt P51955 1-445)
chain: MPSRAEDYEVLYTIGTGSYGRCQKIRRKSDGKILVWKELDYGSMTEAEKQMLVSEVNLLRELKHPNIVRYYDRIIDRTNTTLYIVMEYCEGGDLASVITKGTKERQYLDEEFVLRVMTQLTLALKECHRRSDGGHTVLHRDLKPANVFLDGKQNVKLGDFGLARILNHDTSFAKTFVGTPYYMSPEQMNRMSYNEKSDIWSLGCLLYELCALMPPFTAFSQKELAGKIREGKFRRIPYRYSDELNEIITRMLNLKDYHRPSVEEILENPLIADLVADEQRRNLERRGRQLGEPEKSQDSSPVLSELKLKEIQLQERERALKAREERLEQKEQELCVRERLAEDKLARAENLLKNYSLLKERKFLSLASNPELLNLPSSVIKKKVHFSGESKENIMRSENSESQLTSKSKCKDLKKRLHAAQLRAQALSDIEKNYQLKSRQILGMR

binding (Myc–C-Nap1-CTD-S5D.2): binds
binding (Myc–C-Nap1-CTD-S10D [4]): no binding
binding (Myc–C-Nap1-CTD-KR5E): no binding
binding (Myc–C-Nap1-CTD-S5D.1): binds
B3: HA–Cep135-CTD (648–1141) (domain or fragment, UniProt Q66GS9 648-1140)
chain: QAQKFSHVAGDSSHQKTEVNSLRIVNEQLQRSVDDYQHRLSIKRGELESAQAQIKILEEKIDELNLKMTSQDEEAHVMKKTIGVIDKEKDFLQETVDEKTEKIANLQENLANKEKAVAQMKIMISECESSVNQLKETLVNRDREINSLRRQLDAAHKELDEVGRSREIAFKENRRLQDDLATMARENQEISLELEAAVQEKEEMKSRVHKYITEVSRWESLMAAKEKENQDLLDRFQMLHNRAEDWEVKAHQAEGESSSVRLELLSIDTERRHLRERVELLEKEIQEHINAHHAYESQISSMAKAMSRLEEELRHQEDEKATVLNDLSSLRELCIKLDSGKDIMTQQLNSKNLEFERVVVELENVKSESDLLKKQLSNERHTVKNLESLLATNRDKEFHSHLTSHEKDTEIQLLKEKLTLSESKLTSQSRENTMLRAKVAQLQTDYDALKRQISTERYERERAIQEMRRHGLATPPLSSTLRSPSHSPEHRNV
